According to the supplement of paper PMC4604168 (melanoma cell lines):
The other results are listed elsewhere or left out. Repeats are few or missing, and single values can be far off.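 Cells were imaged in 1,536-well plates, and nuclei stained with an antibody against cleaved PARP were counted against all DNA-stained nuclei to give the apoptosis fraction. Screening doses were chosen to leave most cells alive, and resting and induced cleaved-PARP levels differ strongly between cell lines.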

Tested on: 501Mel
Test: cleaved PARP positive nuclei fraction relative to DMSO control; melanoma cells; higher = more apoptosis
Settings: library dose: low library concentration; 72 h

| SMILES | cleaved PARP positive nuclei fraction |
| --- | --- |
| CS(=O)(=O)c1ccc(C(=O)Nc2ccc(Cl)c(-c3ccccn3)c2)c(Cl)c1 [vismodegib] + OCc1c[nH]c2ccccc12 [Indole-3-carbinol] (first compound 1 µM, partner dose 0.8 µM) | 251% |
| COc1ccc(C2=N[C@@H](c3ccc(Cl)cc3)[C@@H](c3ccc(Cl)cc3)N2C(=O)N2CCNC(=O)C2)c(OC(C)C)c1 [Nutlin-3] + NC1(c2ccc(-c3nc4ccn5c(=O)[nH]nc5c4cc3-c3ccccc3)cc2)CCC1 [MK2206] (first compound 0.1 µM, partner dose 0.4 µM) | 113% |
| COc1ccc(C2=N[C@@H](c3ccc(Cl)cc3)[C@@H](c3ccc(Cl)cc3)N2C(=O)N2CCNC(=O)C2)c(OC(C)C)c1 [Nutlin-3] + Clc1ccc(Nc2nnc(Cc3ccncc3)c3ccccc23)cc1 [vatalanib] (first compound 0.1 µM, partner dose 2 µM) | 125% |
| Cn1sc(=O)n(Cc2ccccc2)c1=O + CN(c1ncccc1CNc1nc(Nc2ccc3c(c2)CC(=O)N3)ncc1C(F)(F)F)S(C)(=O)=O [PF562271] (first compound 0.4 µM, partner dose 0.08 µM) | 87.6% |
| Cn1cnc2c(F)c(Nc3ccc(Br)cc3Cl)c(C(=O)NOCCO)cc21 [selumetinib] + CNC(=O)c1cc(Oc2ccc(NC(=O)Nc3ccc(Cl)c(C(F)(F)F)c3)cc2)ccn1 [sorafenib] (first compound 0.015 µM, partner dose 0.4 µM) | 108% |
| NC1(c2ccc(-c3nc4ccn5c(=O)[nH]nc5c4cc3-c3ccccc3)cc2)CCC1 + CCCS(=O)(=O)Nc1ccc(F)c(C(=O)c2c[nH]c3ncc(Cl)cc23)c1F [PLX4720] (first compound 0.4 µM, partner dose 0.08 µM) | 78.7% |
| NC(=O)c1ccc(N(C(N)=O)c2c(F)cccc2F)nc1-c1ccc(F)cc1F + C#Cc1cccc(Nc2ncnc3cc(OCCOC)c(OCCOC)cc23)c1 [erlotinib] (first compound 0.4 µM, partner dose 0.8 µM) | 126% |
| C[C@@H](N)c1ccc(C(=O)Nc2ccnc3[nH]ccc23)cc1 + Cn1sc(=O)n(Cc2ccccc2)c1=O [TDZD-8] (first compound 0.4 µM, partner dose 0.4 µM) | 101% |
| CS(=O)(=O)c1ccc(C(=O)Nc2ccc(Cl)c(-c3ccccn3)c2)c(Cl)c1 [vismodegib] + CCCCCCCCc1ccc(CCC(N)(CO)CO)cc1 [fingolimod] (first compound 1 µM, partner dose 2 µM) | 252% |
| Cn1cnc2c(F)c(Nc3ccc(Br)cc3Cl)c(C(=O)NOCCO)cc21 [selumetinib] + C#Cc1cccc(Nc2ncnc3cc(OCCOC)c(OCCOC)cc23)c1 [erlotinib] (first compound 0.015 µM, partner dose 0.8 µM) | 2530% |
| CC1(C)CCC(c2ccc(Cl)cc2)=C(CN2CCN(c3ccc(C(=O)NS(=O)(=O)c4ccc(N[C@H](CCN5CCOCC5)CSc5ccccc5)c(S(=O)(=O)C(F)(F)F)c4)cc3)CC2)C1 + CS(=O)(=O)CCNCc1ccc(-c2ccc3ncnc(Nc4ccc(OCc5cccc(F)c5)c(Cl)c4)c3c2)o1 [lapatinib] (first compound 0.4 µM, partner dose 0.8 µM) | 86.5% |
| CC1(C)CCC(c2ccc(Cl)cc2)=C(CN2CCN(c3ccc(C(=O)NS(=O)(=O)c4ccc(N[C@H](CCN5CCOCC5)CSc5ccccc5)c(S(=O)(=O)C(F)(F)F)c4)cc3)CC2)C1 + O=C(O)[C@@H]1[O][Sb](=[O])([O][Sb]2(=[O])[O][C@H]([C@H](O)CO)[C@H](O)[C@H](C(=O)O)[O]2)[O][C@H]([C@H](O)CO)[C@@H]1O [stibogluconate] (first compound 0.4 µM, partner dose 2 µM) | 81% |
| CC1(C)CCC(c2ccc(Cl)cc2)=C(CN2CCN(c3ccc(C(=O)NS(=O)(=O)c4ccc(N[C@H](CCN5CCOCC5)CSc5ccccc5)c(S(=O)(=O)C(F)(F)F)c4)cc3)CC2)C1 + Nc1ccn([C@@H]2O[C@H](CO)[C@@H](O)C2(F)F)c(=O)n1 [gemcitabine] (first compound 0.4 µM, partner dose 0.0004 µM) | 82.6% |

Fetched one by one from the entries so far (two):

| SMILES | cleaved PARP positive nuclei fraction |
| --- | --- |
| COc1ccc(C2=N[C@@H](c3ccc(Cl)cc3)[C@@H](c3ccc(Cl)cc3)N2C(=O)N2CCNC(=O)C2)c(OC(C)C)c1 [Nutlin-3] + Clc1ccc(Nc2nnc(Cc3ccncc3)c3ccccc23)cc1 [vatalanib] (first compound 0.1 µM, partner dose 2 µM) | 125% |
| C[C@@H](N)c1ccc(C(=O)Nc2ccnc3[nH]ccc23)cc1 + Cn1sc(=O)n(Cc2ccccc2)c1=O [TDZD-8] (first compound 0.4 µM, partner dose 0.4 µM) | 101% |
